{"source": "patent US20190008848A1", "about": "“IDENTIFICATION OF ADDITIONAL ANTI-PERSISTER ACTIVITY AGAINST BORRELIA BURGDORFERI FROM AN FDA DRUG LIBRARY” (THE JOHNS HOPKINS UNIVERSITY, priority 2015, published 2019)", "system": "stationary phase B. burgdorferi", "experiment": "SYBR Green I/PI viability assay (drug library screen, plate reader)", "conditions": "screen at 50 μM, 7 days", "procedure": "Borrelia burgdorferi strain B31 (ATCC35210) was received from the […] (Manassas, Va., USA) and was grown in BSK-H medium (HiMedia Laboratories, Mumbai, India) and 6% rabbit serum (Sigma Aldrich, St. Louis, Mo., USA). The culture was filtered and sterilized using a […] and incubated in capped sterile 50 mL conical tubes (BD Biosciences, CA, USA) at 33° C. for 7 days without antibiotics until the culture reached stationary phase.\nThe cultures were examined using a Nikon Eclipse E800 microscope with differential interference contrast and epifluorescent illumination. The pictures were captured using a SPOT slider color camera. A SYBR Green I/PI assay was used to assess the viability of the bacterial sample using the ratio of live to dead B. burgdorferi (measured with green and red fluorescence, respectively) as measured by a plate reader.\nBriefly, prediluted drug stock (10 μL) was added to 7 day old stationary phase B. burgdorferi culture (90 μL) to achieve a 50 μM final drug concentration per well. The plates were then incubated at 33° C. for 7 days at which point the SYBR/PI rapid viability assay was performed in a fluorescence plate reader to obtain the green-red fluorescence ratio."}
{"smiles": "Clc1ccc(CO/N=C(\\Cn2ccnc2)c2ccc(Cl)cc2Cl)c(Cl)c1", "note": "[Oxiconazole nitrate]", "values": [{"measurement": "activity against stationary phase B. burgdorferi (in words)", "result": "reasonable activity"}]}
